Measured values taken from the supplement of paper PMC10338343.
± gives the standard deviation. The entries are a selection whose mix differs from that of the whole data set. Many entries were measured with a wide error.

The sequences below were run on MIWI (PIWIL1) piRISC loaded with Kctd7 piRNA (30 nt) (assay: pre-steady-state target cleavage rate (min^-1); MIWI and MILI are mouse PIWI proteins and EfPiwi is from a freshwater sponge; tags in brackets are library labels; higher = faster piRNA-guided slicing of the target). Conditions: guide: Kctd7 piRNA 5'p-UGUUAAUCUCUCAGAGAAGGUGACAGUGAU; auxiliary factor: 500 nM mouse GTSF1.
Outline: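 Using HEPES–potassium acetate buffer at 33 °C, 1 nM active affinity-purified piRISC with a single synthetic guide was mixed with 0.1 nM transcribed, DNA-blocked target RNA library for 0–8 or 0–960 min, with or without 500 nM GTSF1 partner protein. Uncleaved targets were sequenced and normalised to depth and to weakly complementary targets, and three trials were pooled with k3 capped at 0.0001 min^-1. A burst-and-steady-state fit gave the pre-steady-state cleavage rate.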

Row | Sequence | pre-steady-state target cleavage rate
1 | UAGUGACAGUGGAACUCUGAGAGUUUAUCA | 0.000124 ± 0.039
2 | UAGUGAGUCACCUUCUCUGACUGAUUAAGA | 0.00114 ± 0.0079
3 | UAGUGUGUCACCUUCUCUGAGACUAAUUGA [g9:g25:cont:t1A] | 0.00126 ± 0.007
4 | UAGUGACAGUCCUUCUCUGACUCAUUAUGA | 0.000213 ± 0.01
5 | UAGUGACAGUCCUUCUCUGAGAGAAUUACA | 0.00128 ± 0.0064
6 | UAGUGACUCACCUUGUCUGAGAGAUUUUGA | 0.00081 ± 0.014
7 | UAGUCAGUCACCAUCUCUGAGAGAUUAACA | 0.706 ± 0.04
8 | UAGUGACAGUCCUUCUGUGAGACAUUAACA | 0.00151 ± 0.0052
9 | UAGUGACACAGCUUCUCUGAGAGAUAUUGA | 0.000693 ± 0.0061
10 | UAGUGACAGUGCUUCUCUGACAGAUUAACA | 0.00252 ± 0.0047
11 | UACACUGUCACCUUUCUCUGAGAGAUUAACA | 0.575 ± 0.029
12 | UAGUCUGUCACCUUCUGACUCUCUAAUUGA [g15:g26:cont:t1A] | 0.000574 ± 0.0086
13 | AUCACUGUCACCUUCUCUGAGAGAUUAACA [g2:g30:cont:t1A] | 0.734 ± 0.035
14 | UAGUGACAGUGCAUCUGUGAGAGAUUAACA | 0.000782 ± 0.0077
15 | UAGUGACAGUGGAUCUCUGAGAGAUUAAUA | 0.00015 ± 0.026
16 | UACACUCUCACCAUCUCUGAGAGAUUAACA | 0.406 ± 0.028
17 | UAGUGACUCAGCUUCUCUGAGAGAUUUUGA | 0.000645 ± 0.0087
18 | UAGUGACAGACCUUCUGAGAGAGAUUUUGA | 0.000132 ± 0.037
19 | UUCACUGUCACCUUCUCUGUCUGAUUAACA | 0.00388 ± 0.0041
20 | AUCACUGUCACCUUCUCUCUCAGAUUAACA | 0.00325 ± 0.0044
21 | UAGACUGUCACCUUCUCACUCUCUAAUUGA [g14:g27:cont:t1A] | 0.000333 ± 0.011
22 | UAGACUCUCACCUUCUCUGAGAGAUUUUGA | 0.0479 ± 0.011
23 | UAGUGACAGUCCUUCUCUGAGUGAAUAACA | 0.000368 ± 0.012

Row | Sequence | pre-steady-state target cleavage rate
24 | UAGUCUGUGUCCUUCUCUGAGAGAUUUUGA | 0.00211 ± 0.0042
25 | UUCACUGUACACCUUCUCUGAGAGAUUAACA | 0.655 ± 0.033
26 | UAGUGAGUCACCUUCAGUGAGAGAUUUUGA | 0.0022 ± 0.0071
27 | UAGUGUGUCAGGUUCUCUGAGAGAUUUUGA | 0.00175 ± 0.0081
28 | UAGUGUGUCACCUUCUCUGACUCAUUAUGA | 0.000869 ± 0.014
29 | UAGUGACAGACGAUCUCUGAGAGAUUAUGA | 0.000176 ± 0.037
30 | UACACUGUCACCUUCUCUGAGAGAUAUUGA [g6:g28:cont:t1A] | 0.0488 ± 0.017
31 | UAGUGUGUCACCUUCUCACAGAGAUUAAGA | 0.0014 ± 0.0092
32 | UUGACUGUCACCUUCUCUGAGACAUUAACA | 0.0684 ± 0.0093
33 | AUGACUGUCACCUUCUCUGAGAGAUUAACA | 0.771 ± 0.037
34 | UAGUGACUCACCUUCUCUGAGUGAUUUUGA | 0.000866 ± 0.0084
35 | UAGUGACAGUGGAUCUCUGAGCGAUUAACA | 0.000242 ± 0.026
36 | UAGUGACAGUGGAACUCUGAGACAUUAUCA | 0.00108 ± 0.015
37 | UAGACUGUCACCUUCUCUGACAGAUUAUGA | 0.000597 ± 0.0067
38 | UAGUGACAGACCUUCUCACAGAGAUUAACA | 0.00132 ± 0.01
39 | UAGUGACAGUGGAACUCUGAGUGUUUAACA | 0.000518 ± 0.02
40 | UAGUGACUGACCUUCUCUGAGAGAUAUUGA | 0.000915 ± 0.0097
41 | UAGUGACAGUGGAAGAGAGACACAUUAACA | 0.000265 ± 0.025
42 | UAGUGACAGUGCUUCUGAGAGAGAUUAACA | 0.000291 ± 0.015
43 | UAGUGACAGUCCUUCUCGUGAGAGAUUAACA | 0.000937 ± 0.0096
44 | UAGUGACAGUGGAAGACUGAGAGAUUCACA | 0.000155 ± 0.043
45 | UAGUGACUCACCUUCUCUGACUCAUUAACA | 0.00155 ± 0.0054
46 | UAGACUGUCACCUUCUCUCUCAGAUAUUGA | 0.000268 ± 0.017

Row | Sequence | pre-steady-state target cleavage rate
47 | UAGAAUGUCACCUUCUCUGAGAGAUUAACA | 0.652 ± 0.038
48 | UAGUGACAGUGCUUCUCAGAGAGUUUAACA | 0.00103 ± 0.0093
49 | UAGUCUAGUCACCUUCUCUGAGAGAUUAACA | 0.67 ± 0.035
50 | UUCACUGUCACCAUUCUCUGAGAGAUUAACA | 0.725 ± 0.029
51 | UAGUGAGUCACCUUCUCUGAGACUAUAUGA | 0.00163 ± 0.0059
52 | UAGUGUGUGUCCUUCUCUGAGAGAUAUUGA | 0.00237 ± 0.0046
53 | UAGUGACAGUCCUUCUCUGAGAGAAUAUCA | 0.000578 ± 0.0086
54 | UAGUCUGUCACCAACUCUGAGAGAUAUUGA | 0.000402 ± 0.011
55 | UAGUGACAGUCCUUCUCUGACAGAUAAACA | 0.000567 ± 0.0096
56 | UAGUGAGUCACCUUCUCUGUCUGAUUAAGA | 0.00159 ± 0.011
57 | UAGUGUGUCACCUUCAGUGAGAGAUAUUGA | 0.00269 ± 0.005
58 | UAGUGACAGUCCUUCUCUGUGAGAAUAACA | 0.000819 ± 0.0067
59 | UAGUGACAGUCCUUCUCUGAGAGUAAAUGA | 0.000152 ± 0.032
60 | UACACUGUCACCUUCUCUGACUGAUUAAGA | 0.00227 ± 0.0049
61 | UAGUGACAGUGGAAGAGACAGAGAAAUACA | 0.000108 ± 0.041
62 | UACACUGUCACCAACUCUGAGAGAUUUUGA | 0.00105 ± 0.011
63 | UAGUCUGUCACCUUCUGUGACAGAUUAACA | 0.00236 ± 0.0059
64 | UAGUCUGUCACCUUCUCUGAGUCAUUAUGA | 0.00142 ± 0.0046
65 | UACACUGUCACCUUCUCUGACUCAUUAACA | 0.004 ± 0.004
66 | UACACUGUCACCUUCUGACUCUCUAAUUGA [g15:g28:cont:t1A] | 0.0007 ± 0.015
67 | UAGUGACUCACCUUCUCUGAGAGAAUAUGA | 0.00356 ± 0.0045
68 | UAGUGACAGACCUUCUCUGUGAGAUUAUGA | 0.00111 ± 0.0081
69 | UAGUGACAGACCUUCUCUGAGAGUUUAUGA | 0.00125 ± 0.0069

23 entries from above, tab-delimited:
Row	Sequence	pre-steady-state target cleavage rate
45	UAGUGACUCACCUUCUCUGACUCAUUAACA	0.00155 ± 0.0054
46	UAGACUGUCACCUUCUCUCUCAGAUAUUGA	0.000268 ± 0.017
47	UAGAAUGUCACCUUCUCUGAGAGAUUAACA	0.652 ± 0.038
48	UAGUGACAGUGCUUCUCAGAGAGUUUAACA	0.00103 ± 0.0093
49	UAGUCUAGUCACCUUCUCUGAGAGAUUAACA	0.67 ± 0.035
50	UUCACUGUCACCAUUCUCUGAGAGAUUAACA	0.725 ± 0.029
51	UAGUGAGUCACCUUCUCUGAGACUAUAUGA	0.00163 ± 0.0059
52	UAGUGUGUGUCCUUCUCUGAGAGAUAUUGA	0.00237 ± 0.0046
53	UAGUGACAGUCCUUCUCUGAGAGAAUAUCA	0.000578 ± 0.0086
54	UAGUCUGUCACCAACUCUGAGAGAUAUUGA	0.000402 ± 0.011
55	UAGUGACAGUCCUUCUCUGACAGAUAAACA	0.000567 ± 0.0096
56	UAGUGAGUCACCUUCUCUGUCUGAUUAAGA	0.00159 ± 0.011
57	UAGUGUGUCACCUUCAGUGAGAGAUAUUGA	0.00269 ± 0.005
58	UAGUGACAGUCCUUCUCUGUGAGAAUAACA	0.000819 ± 0.0067
59	UAGUGACAGUCCUUCUCUGAGAGUAAAUGA	0.000152 ± 0.032
60	UACACUGUCACCUUCUCUGACUGAUUAAGA	0.00227 ± 0.0049
61	UAGUGACAGUGGAAGAGACAGAGAAAUACA	0.000108 ± 0.041
62	UACACUGUCACCAACUCUGAGAGAUUUUGA	0.00105 ± 0.011
63	UAGUCUGUCACCUUCUGUGACAGAUUAACA	0.00236 ± 0.0059
64	UAGUCUGUCACCUUCUCUGAGUCAUUAUGA	0.00142 ± 0.0046
65	UACACUGUCACCUUCUCUGACUCAUUAACA	0.004 ± 0.004
66	UACACUGUCACCUUCUGACUCUCUAAUUGA [g15:g28:cont:t1A]	0.0007 ± 0.015
67	UAGUGACUCACCUUCUCUGAGAGAAUAUGA	0.00356 ± 0.0045

Next results:

Row | Sequence | pre-steady-state target cleavage rate
70 | UAGUGACAGACCUUCUCUGUGUGAUUAACA | 0.00321 ± 0.0045
71 | UAGUGACAGAGCUUCUCUCAGAGAUUAACA | 0.0015 ± 0.0058
72 | AUCACUCAGACCUUCUCUGAGAGAUUAACA | 0.433 ± 0.024
73 | UAGACUGUCACCAAGUCUGAGAGAUUUUGA | 0.000371 ± 0.011
74 | UAGACUGUCACCUUCUCUCAGUGAUUAACA | 0.00243 ± 0.003
75 | UAGUGUGUCACCAAGUCUGAGAGAUUAAGA | 0.000328 ± 0.021
76 | UACACUGUCACCUUGACUGAGAGAUAUUGA | 0.00367 ± 0.0056
77 | UAGUGUGUCACCUUCUCUCUGAGAUUAAGA | 0.00301 ± 0.0051
78 | UAGUGACAGUCCUUCUCUGAGAAUUAACA | 0.00131 ± 0.0049
79 | UAGUCUGAGUCCUUCUCUGAGAGAUUUUGA | 0.0013 ± 0.0054
80 | AACACUGUCAGCUUCUCUGAGAGAUUAACA | 0.753 ± 0.039
81 | UAGUGACACACCAUCUCUGAGAGAUUUUGA | 0.00147 ± 0.0073
82 | UAGACUGUCACGAUCUCUGAGAGAUUUUGA | 0.000147 ± 0.036
83 | UAGUGAGUCUGCUUCUCUGAGAGAUAUUGA | 0.000514 ± 0.011
84 | UAGUGACAGACCUUGUCUGAGAGAUUAUGA | 0.000551 ± 0.016
85 | UAGUGACAGACCUUCUCUGAGACGAUUAACA | 0.00148 ± 0.0096
86 | UACACUGUCACGAACUCUGAGAGAUUAUGA | 0.000139 ± 0.038
87 | AUCACUGUCACCUUCUCUGAGUCAUAUUGA | 0.00182 ± 0.005
88 | UAGUGACAGACCUACUCAGAGAGAUUAACA | 0.00112 ± 0.0096
89 | UAGACUGUCACCUUGAGUGAGAGAUAUUGA | 0.00023 ± 0.024
90 | UAGUGACAGACCUUCAGAGAGAGAUUAUGA | 0.000486 ± 0.021

Reprinted, nos. 72 to 73
Row | Sequence | pre-steady-state target cleavage rate
72 | AUCACUCAGACCUUCUCUGAGAGAUUAACA | 0.433 ± 0.024
73 | UAGACUGUCACCAAGUCUGAGAGAUUUUGA | 0.000371 ± 0.011
